In doi:10.1101/2021.05.14.444243:

Biological target: T1, N-terminally truncated SPO-11 (SPO-11Δ1-47) (C. elegans) (UniProt Q22236)
T1 sequence: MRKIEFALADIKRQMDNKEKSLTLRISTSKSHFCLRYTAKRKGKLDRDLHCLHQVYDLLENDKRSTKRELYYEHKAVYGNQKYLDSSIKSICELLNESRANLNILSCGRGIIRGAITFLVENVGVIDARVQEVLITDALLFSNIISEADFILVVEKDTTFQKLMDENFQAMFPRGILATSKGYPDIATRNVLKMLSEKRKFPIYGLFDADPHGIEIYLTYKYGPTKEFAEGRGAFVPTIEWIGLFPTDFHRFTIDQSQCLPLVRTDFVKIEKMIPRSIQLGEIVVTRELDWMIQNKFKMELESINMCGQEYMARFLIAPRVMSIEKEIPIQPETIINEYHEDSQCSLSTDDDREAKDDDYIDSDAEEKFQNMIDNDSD
Assay: two-hybrid

binding | Substance
binds | DSB-1 (full-length) (C. elegans)
no binding | N-terminally truncated DSB-1 (DSB-1Δ1-33) (C. elegans) (domain or fragment)

No constants are given. Whether binding was seen depends on the method and setting. Binding calls can cover weak binding; strength is not graded here.
